From US20060222645A1 (LEXICON PHARMACEUTICALS, published 2006)
Results are given in words; binding and its absence hold for the method and conditions named. Some entries that bind do so weakly or less than the wild type.

Target: T1, N-terminal coiled-coil domain of mouse ANGPTL4 (mouse) (UniProt Q9Z1P8)
T1 sequence: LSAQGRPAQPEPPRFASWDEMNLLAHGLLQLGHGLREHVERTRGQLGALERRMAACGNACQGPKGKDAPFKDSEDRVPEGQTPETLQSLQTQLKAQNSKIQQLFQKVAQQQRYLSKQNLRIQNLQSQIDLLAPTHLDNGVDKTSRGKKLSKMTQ
Assay: ELISA on isolated domain

Row | Binder | binding
1 | monoclonal antibody 14D12 (antibody, V domains shown) VH: EVKLVESGGGLVKPGGSLKLSCAASGFAFSRYDMSWVRQTPEKRLEWVATISTGGSYTYYPDSVKGRFTISRDNARNTLYLQMGSLRSEDTALYFCVRHEQSTVVPHYPLDYWGQGTSVTVSS VL: DIVMTQSPATLSVTPGDRVSLSCRASQSIGDYLHWYQQKSHESPRLLIKYASQSISGIPSRFSGSGSGSDFTLSIDSVEPEDVGVYYCQNGHSFPFTFGSGTKLEIKR | binds
2 | monoclonal antibody 15F2 (antibody, V domains shown) VH: EVKLVESGGGLVKPGGSLKLSCAASGFAFSRYDMSWVRQTPEKRLEWVATISTDGSYTYYPDSVKGRFTISRDNARNTLYLQMGSLRSEDTALYFCVRHEQSTIVPHYPLDYWGQGTSVTVSS VL: EIQMTQSPSSMSASLGDRITITCQATQDIVKNLNWYQQKPGKPPSFLIHYATELAEGVPSRFSGSGSGSDYSLTISNLESEDFADYYCLQSYDFPYTFGGGTKLEINR | binds
